These are yes or no findings as the source states them, for the method shown. Binding seen in cells or lysates may run through a third protein. Some entries that bind do so weakly or less than the wild type.

The values below come from US6864224 (BROWN UNIVERSITY RESEARCH FOUNDATION, dated 2005).

The target in assay [1] is endogenous MEK of Rat-1 cells (rat (Rat-1 cells)) (UniProt Q01986). In words: co-immunoprecipitation of endogenous proteins; also seen in reciprocal immunoprecipitations.
Assay [2] has the same target. In words: co-immunoprecipitation of endogenous proteins with RKIP antiserum.

B1: endogenous RKIP of Rat-1 cells (other, rat (Rat-1 cells), UniProt P31044 2-187, looked up)
chain: AADISQWAGPLSLQEVDEPPQHALRVDYGGVTVDELGKVLTPTQVMNRPSSISWDGLDPGKLYTLVLTDPDAPSRKDPKFREWHHFLVVNMKGNDISSGTVLSEYVGSGPPKDTGLHRYVWLVYEQEQPLNCDEPILSNKSGDNRGKFKVESFRKKYHLGAPVAGTCFQAEWDDSVPKLHDQLAGK
notes: Endogenous protein in cell lysates
As for B1, the binding entry in assay [1] and in assay [2] was “binds” each time.
